Test results reported in the supplement of paper PMC10849652.
This is one part of the list.

Amino acid sequences for entries named in this document (tags omitted). A change or cut given only in a name is not applied to a line headed by its entry.
UniProt Q9NPQ8: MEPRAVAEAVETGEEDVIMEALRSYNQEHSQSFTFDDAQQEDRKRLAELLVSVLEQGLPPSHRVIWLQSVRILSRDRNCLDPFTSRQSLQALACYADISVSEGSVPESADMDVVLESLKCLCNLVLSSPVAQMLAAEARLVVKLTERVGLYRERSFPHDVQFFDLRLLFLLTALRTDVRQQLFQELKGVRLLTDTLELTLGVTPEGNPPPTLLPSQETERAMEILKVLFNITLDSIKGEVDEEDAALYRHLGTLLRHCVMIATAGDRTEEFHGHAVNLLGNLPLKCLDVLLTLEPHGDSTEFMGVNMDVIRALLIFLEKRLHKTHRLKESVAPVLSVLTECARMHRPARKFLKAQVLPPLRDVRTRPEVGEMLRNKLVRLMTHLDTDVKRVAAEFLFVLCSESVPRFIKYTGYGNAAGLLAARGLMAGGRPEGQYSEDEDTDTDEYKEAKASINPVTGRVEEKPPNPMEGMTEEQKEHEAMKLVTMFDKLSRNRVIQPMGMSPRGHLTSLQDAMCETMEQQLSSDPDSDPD
UniProt Q8ND24: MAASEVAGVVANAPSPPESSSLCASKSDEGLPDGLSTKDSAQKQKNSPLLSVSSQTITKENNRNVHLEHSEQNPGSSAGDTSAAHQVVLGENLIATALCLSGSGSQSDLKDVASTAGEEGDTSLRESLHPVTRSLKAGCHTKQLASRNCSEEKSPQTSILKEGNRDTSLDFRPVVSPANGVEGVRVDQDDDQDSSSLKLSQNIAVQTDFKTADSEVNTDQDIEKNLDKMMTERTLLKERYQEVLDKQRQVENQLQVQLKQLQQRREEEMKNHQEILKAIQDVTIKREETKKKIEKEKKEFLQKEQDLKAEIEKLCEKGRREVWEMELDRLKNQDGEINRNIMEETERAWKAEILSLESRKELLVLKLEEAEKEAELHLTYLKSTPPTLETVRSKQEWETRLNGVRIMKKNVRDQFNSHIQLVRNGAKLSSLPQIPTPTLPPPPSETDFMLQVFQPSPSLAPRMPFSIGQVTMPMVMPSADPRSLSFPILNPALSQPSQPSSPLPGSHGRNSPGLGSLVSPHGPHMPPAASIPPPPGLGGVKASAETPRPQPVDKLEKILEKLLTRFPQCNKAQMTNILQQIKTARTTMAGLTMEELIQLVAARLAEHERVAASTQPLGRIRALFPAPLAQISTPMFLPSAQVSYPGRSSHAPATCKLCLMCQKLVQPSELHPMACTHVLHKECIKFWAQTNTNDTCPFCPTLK
UniProt O15541: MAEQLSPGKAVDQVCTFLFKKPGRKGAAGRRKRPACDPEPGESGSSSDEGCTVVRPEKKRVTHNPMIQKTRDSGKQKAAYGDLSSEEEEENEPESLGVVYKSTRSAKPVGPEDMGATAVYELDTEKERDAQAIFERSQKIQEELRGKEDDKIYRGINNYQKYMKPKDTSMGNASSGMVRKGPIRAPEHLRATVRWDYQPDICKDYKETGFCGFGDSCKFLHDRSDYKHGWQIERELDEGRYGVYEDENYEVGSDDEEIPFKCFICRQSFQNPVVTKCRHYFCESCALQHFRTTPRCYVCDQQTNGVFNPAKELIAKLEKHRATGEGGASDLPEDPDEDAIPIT
UniProt Q5UIP0: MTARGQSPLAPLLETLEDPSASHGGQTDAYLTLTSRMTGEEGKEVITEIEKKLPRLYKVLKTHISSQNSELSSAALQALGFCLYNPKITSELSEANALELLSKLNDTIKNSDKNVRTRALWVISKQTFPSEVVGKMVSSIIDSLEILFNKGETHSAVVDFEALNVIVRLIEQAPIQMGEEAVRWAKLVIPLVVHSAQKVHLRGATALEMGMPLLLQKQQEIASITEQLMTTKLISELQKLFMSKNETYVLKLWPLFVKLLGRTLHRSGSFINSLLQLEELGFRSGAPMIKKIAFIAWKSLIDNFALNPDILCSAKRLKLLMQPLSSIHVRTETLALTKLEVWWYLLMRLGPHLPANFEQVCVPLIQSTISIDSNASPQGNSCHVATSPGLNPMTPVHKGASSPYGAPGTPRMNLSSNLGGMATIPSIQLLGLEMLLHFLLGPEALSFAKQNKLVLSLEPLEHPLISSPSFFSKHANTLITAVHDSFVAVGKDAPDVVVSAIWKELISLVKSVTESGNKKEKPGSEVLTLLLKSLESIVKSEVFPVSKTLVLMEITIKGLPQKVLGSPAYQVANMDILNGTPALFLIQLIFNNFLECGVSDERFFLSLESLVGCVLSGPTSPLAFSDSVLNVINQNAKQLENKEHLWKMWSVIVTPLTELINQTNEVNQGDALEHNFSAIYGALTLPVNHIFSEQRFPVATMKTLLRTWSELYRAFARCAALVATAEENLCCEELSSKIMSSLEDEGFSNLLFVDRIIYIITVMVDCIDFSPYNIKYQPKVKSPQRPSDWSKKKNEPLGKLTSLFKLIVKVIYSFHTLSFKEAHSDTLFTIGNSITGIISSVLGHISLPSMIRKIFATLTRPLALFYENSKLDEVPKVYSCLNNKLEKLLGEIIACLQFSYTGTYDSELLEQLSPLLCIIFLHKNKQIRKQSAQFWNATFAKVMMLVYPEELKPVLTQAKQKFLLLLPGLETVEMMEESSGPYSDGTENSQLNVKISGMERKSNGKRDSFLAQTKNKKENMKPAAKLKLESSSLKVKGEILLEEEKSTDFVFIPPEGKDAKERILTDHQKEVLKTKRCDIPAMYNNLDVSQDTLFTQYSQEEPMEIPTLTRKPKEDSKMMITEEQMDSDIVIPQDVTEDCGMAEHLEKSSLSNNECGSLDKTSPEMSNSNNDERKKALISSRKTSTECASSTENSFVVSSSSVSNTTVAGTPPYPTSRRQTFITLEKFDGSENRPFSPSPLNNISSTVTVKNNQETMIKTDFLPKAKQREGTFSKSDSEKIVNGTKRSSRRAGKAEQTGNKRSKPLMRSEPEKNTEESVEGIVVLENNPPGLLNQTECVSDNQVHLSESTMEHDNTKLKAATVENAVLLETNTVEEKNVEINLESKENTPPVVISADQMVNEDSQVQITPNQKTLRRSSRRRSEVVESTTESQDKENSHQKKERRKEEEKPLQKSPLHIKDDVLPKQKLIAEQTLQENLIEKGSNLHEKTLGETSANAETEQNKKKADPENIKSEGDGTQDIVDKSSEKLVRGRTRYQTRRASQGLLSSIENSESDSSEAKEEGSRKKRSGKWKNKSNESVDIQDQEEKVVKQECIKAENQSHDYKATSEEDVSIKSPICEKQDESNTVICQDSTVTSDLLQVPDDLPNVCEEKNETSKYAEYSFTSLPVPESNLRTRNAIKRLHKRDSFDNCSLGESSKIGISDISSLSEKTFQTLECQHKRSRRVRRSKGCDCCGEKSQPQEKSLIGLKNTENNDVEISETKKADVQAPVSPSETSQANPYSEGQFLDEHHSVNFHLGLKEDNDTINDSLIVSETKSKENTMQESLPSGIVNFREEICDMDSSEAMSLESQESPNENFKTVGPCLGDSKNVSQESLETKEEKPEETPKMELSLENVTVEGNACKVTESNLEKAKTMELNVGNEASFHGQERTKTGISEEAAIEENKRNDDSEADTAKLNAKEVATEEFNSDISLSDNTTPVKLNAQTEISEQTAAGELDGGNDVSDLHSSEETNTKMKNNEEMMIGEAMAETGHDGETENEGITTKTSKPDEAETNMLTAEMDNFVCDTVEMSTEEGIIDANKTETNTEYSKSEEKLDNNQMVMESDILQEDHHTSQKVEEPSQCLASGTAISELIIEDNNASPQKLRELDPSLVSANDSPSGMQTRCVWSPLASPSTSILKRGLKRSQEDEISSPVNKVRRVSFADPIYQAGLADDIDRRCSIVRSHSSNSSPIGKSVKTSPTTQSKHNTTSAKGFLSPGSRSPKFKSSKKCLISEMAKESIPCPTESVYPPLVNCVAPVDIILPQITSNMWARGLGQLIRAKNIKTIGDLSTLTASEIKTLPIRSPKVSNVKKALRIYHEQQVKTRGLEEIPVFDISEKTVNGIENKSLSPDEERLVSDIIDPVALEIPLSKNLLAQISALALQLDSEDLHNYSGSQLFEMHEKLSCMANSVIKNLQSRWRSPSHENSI
UniProt O75116: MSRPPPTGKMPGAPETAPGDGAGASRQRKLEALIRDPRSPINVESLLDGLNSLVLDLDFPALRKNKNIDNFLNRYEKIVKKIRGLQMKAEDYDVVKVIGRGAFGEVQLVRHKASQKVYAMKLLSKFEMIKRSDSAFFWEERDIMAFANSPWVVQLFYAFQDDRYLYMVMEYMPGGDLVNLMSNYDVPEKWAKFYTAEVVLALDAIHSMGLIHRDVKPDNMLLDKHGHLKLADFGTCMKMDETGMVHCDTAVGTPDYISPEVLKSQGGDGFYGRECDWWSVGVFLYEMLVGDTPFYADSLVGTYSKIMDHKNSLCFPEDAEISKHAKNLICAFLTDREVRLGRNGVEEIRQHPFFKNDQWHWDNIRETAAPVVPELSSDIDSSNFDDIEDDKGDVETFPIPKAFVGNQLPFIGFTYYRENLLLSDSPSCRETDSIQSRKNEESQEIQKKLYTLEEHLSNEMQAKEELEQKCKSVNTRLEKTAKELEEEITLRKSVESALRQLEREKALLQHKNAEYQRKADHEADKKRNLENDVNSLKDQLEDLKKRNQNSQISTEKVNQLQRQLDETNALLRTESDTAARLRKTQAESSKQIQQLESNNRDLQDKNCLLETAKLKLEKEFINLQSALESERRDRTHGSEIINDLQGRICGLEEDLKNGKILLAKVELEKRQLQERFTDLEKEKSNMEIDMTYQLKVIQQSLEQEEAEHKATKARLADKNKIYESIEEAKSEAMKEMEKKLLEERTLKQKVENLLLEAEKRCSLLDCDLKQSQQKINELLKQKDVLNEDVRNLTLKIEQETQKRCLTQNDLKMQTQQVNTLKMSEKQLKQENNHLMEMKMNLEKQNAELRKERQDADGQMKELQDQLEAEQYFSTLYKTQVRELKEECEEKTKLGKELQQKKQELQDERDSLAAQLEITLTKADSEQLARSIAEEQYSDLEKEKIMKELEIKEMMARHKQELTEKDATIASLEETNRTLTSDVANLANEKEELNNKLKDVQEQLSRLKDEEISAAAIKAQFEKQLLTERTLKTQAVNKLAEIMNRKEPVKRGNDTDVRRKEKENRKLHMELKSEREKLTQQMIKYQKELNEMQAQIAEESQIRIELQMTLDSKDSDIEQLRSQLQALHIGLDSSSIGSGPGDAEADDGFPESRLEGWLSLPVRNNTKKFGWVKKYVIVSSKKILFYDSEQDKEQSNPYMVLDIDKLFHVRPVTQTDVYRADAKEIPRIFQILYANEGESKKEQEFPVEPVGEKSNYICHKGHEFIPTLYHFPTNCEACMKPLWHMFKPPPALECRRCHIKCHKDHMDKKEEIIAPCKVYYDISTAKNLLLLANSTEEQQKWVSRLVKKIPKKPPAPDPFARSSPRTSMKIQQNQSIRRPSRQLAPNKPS
UniProt Q9P0P0: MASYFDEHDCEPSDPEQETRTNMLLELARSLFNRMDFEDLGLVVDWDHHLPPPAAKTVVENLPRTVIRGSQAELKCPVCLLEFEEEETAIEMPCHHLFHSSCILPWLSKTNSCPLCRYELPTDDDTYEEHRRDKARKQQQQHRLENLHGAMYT
UniProt P10155: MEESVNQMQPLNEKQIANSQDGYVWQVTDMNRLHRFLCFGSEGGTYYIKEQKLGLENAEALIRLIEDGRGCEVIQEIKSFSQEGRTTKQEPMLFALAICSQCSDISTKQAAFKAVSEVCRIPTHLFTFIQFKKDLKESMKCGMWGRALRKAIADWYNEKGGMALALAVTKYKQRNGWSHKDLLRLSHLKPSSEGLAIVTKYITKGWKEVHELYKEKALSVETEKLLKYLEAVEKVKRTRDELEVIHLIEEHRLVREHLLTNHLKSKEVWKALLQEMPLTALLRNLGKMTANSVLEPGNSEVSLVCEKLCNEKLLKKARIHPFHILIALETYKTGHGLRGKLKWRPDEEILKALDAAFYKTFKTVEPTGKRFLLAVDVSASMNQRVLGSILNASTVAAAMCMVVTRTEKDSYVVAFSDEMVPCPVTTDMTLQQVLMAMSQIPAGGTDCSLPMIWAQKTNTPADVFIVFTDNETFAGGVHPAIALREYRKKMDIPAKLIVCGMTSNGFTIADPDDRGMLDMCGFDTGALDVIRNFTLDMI
UniProt Q8IUF8: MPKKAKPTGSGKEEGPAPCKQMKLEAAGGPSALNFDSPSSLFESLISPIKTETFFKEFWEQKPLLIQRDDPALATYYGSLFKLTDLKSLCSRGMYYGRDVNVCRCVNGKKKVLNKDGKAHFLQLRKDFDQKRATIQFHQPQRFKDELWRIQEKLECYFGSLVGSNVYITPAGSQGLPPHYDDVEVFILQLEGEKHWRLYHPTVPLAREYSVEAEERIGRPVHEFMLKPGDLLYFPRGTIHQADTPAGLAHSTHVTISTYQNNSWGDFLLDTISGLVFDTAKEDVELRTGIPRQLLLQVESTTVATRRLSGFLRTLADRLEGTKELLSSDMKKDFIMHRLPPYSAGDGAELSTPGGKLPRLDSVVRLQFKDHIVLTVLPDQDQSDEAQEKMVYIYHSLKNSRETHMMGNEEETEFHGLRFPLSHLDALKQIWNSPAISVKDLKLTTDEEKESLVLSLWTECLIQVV

Key:
Assay in all cases: log2 fold change, soluble protein after heating vs DMSO (PISA); higher = thermal stabilisation; K562 lysate, 10 uM; active = over 0.2 and 3.5 SD of the protein, either way, in both replicates (recomputed)
erlotinib = compound: C#Cc1cccc(Nc2ncnc3cc(OCCOC)c(OCCOC)cc23)c1 [erlotinib]
In short: (§1)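 Quantification was by TMTpro 16plex LC-MS/MS with equalised channel sums, applied to the supernatant after 21,000xg for 90 min. Samples were crude K562 extract at 1 mg/mL protein in PBS pH 7.4 with 1 mM MgCl2, treated with 10 μM compound for 30 min, heated for 3 min across 48°C-58°C, pooled and brought to 0.5% NP-40 at 4°C. Values are log-two fold changes in thermal stability relative to solvent controls, from duplicates.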

[1] = compound: C/C(=N\NC(=O)C1=CC(=CC=C1)S(=O)(=O)N2CCOCC2)/C3=C(C=CC(=C3)Cl)O
In short: as §1

[2] = compound: C1=CC(=CC=C1C2=NC3=C(N2)C=C(C=C3)C(=O)N)OC4=CC=C(C=C4)Cl
In short: as §1

[3] = compound: C1=CC2=C(C=CC(=C2)/C=C\3/C(=O)NC(=NCC4=CC=CS4)S3)N=C1
In short: as §1

[4] = compound: C1=CC2=NC=CN=C2C=C1/C=C/3\C(=O)NC(=O)S3
In short: as §1

[5] = compound: C1=CC=C(C=C1)C2=NC(=C(N2)C3=CC=NC=C3)C4=CC(=C(C=C4)Cl)O
In short: as §1

[6] = compound: C1=CC=C2C(=C1)C3=NNC4=CC=CC(=C43)C2=O
In short: as §1

[7] = compound: C1CCN(C1)C(=O)NC2=CC=CC(=C2)NC3=NC=C(C(=N3)NCCC4=CN=CN4)Br
In short: as §1

[8] = compound: C1CN(CCC1(CC2=CC=C(C=C2)Cl)N)C3=NC=NC4=C3C=CN4
In short: as §1

IRAK-1-4 Inhibitor I = compound: C1COCCN1CCN2C3=CC=CC=C3N=C2NC(=O)C4=CC(=CC=C4)[N+](=O)[O-] [IRAK-1-4 Inhibitor I]
In short: as §1

ibrutinib = compound: C=CC(=O)N1CCC[C@@H](n2nc(-c3ccc(Oc4ccccc4)cc3)c3c(N)ncnc32)C1 [ibrutinib]
In short: as §1

[9] = compound: CC(=O)c1cnc2ccc(-c3cc(Cl)c(O)c(Cl)c3)nc2c1N[C@H]1CC[C@H](CN(C)C)CC1
In short: as §1

ralimetinib = compound: CC(C)(C)Cn1c(N)nc2ccc(-c3[nH]c(C(C)(C)C)nc3-c3ccc(F)cc3)nc21 [ralimetinib]
In short: as §1

[10] = compound: CC(C)(O)CC(=O)NCCn1ccc2ncnc(Nc3ccc(Oc4cccc(C(F)(F)F)c4)c(Cl)c3)c21
In short: as §1

[11] = compound: CC(C)C1=C2N=C(C=C(N2N=C1)NCC3=CC=CC=C3)NCCCCCCN
In short: as §1

[12] = compound: CC1=C(C(CC(=O)N1)C2=CC=C(C=C2)C(F)(F)F)C(=O)NC3=C(C=C4C(=C3)C=NN4)F
In short: as §1

[13] = compound: CC1=C(C2=C(C=C1)C(=O)C3=CC=CC=C3N2CCCN)C
In short: as §1

[14] = compound: CC1=C(C=C(C=C1)NC(=O)C2=CC(=CC=C2)C(C)(C)C#N)NC3=CC4=C(C=C3)N=CN(C4=O)C
In short: as §1

[15] = compound: CC1=C(C=C(C=C1)NC(=O)C2=CC(=CC=C2)N(C)C)NC(=O)C3=CC=C(C=C3)O
In short: as §1

[16] = compound: CC1=CC=C(C=C1)SC2=C3C=C(SC3=CN=C2)C(=O)N
In short: as §1

Measured: log2 fold change

RIC8A (UniProt Q9NPQ8)
inactive: erlotinib 0.052 | [1] -0.159 | [2] -0.035 | [3] 0.031 | [4] 0.012 | [5] -0.024 | [6] -0.06 | [7] 0.01 | [8] 0.01 | IRAK-1-4 Inhibitor I -0.013 | ibrutinib 0.008 | [9] -0.002 | ralimetinib 0.006 | [10] 0.015 | [11] -0.043 | [12] 0.004 | [13] 0.015 | [14] 0.029 | [15] 0.007 | [16] -0.004

RNF214 (UniProt Q8ND24)
inactive: erlotinib -0.01 | [1] -0.043 | [2] 0.065 | [3] -0.019 | [4] -0.045 | [5] -0.007 | [6] 0.02 | [7] -0.024 | [8] 0.048 | IRAK-1-4 Inhibitor I -0.003 | ibrutinib 0.042 | [9] -0.009 | ralimetinib 0.011 | [10] -0.022 | [11] -0.005 | [12] 0.045 | [13] 0.021 | [14] -0.013 | [15] -0.021 | [16] -0.028

RNF113A (UniProt O15541)
inactive: erlotinib -0.039 | [1] -0.039 | [2] 0.036 | [3] 0.027 | [4] -0.008 | [5] -0.01 | [6] -0.02 | [7] -0.005 | [8] 0.01 | IRAK-1-4 Inhibitor I 0.02 | ibrutinib 0.009 | [9] -0.003 | ralimetinib 0.005 | [10] -0.049 | [11] 0.111 | [12] 0.015 | [13] -0.038 | [14] 0.024 | [15] 0.017 | [16] -0.03

RNF14 (UniProt Q9UBS8)
inactive: erlotinib 0.064 | [1] 0.011 | [2] 0.048 | [3] 0.008 | [4] -0.028 | [5] 0.009 | [6] -0.02 | [7] -0.02 | [8] 0.005 | IRAK-1-4 Inhibitor I 0.005 | ibrutinib -0.022 | [9] 0.008 | ralimetinib -0.035 | [10] -0.007 | [11] 0.007 | [12] -0.013 | [13] 0.009 | [14] 0.015 | [15] 0 | [16] -0.023

RNF141 (UniProt Q8WVD5)
inactive: erlotinib 0.052 | [1] -0.1 | [2] 0.052 | [3] 0.092 | [4] -0.013 | [5] 0.014 | [6] 0.03 | [7] -0.095 | [8] -0.023 | IRAK-1-4 Inhibitor I 0.019 | ibrutinib 0.131 | [9] -0.052 | ralimetinib 0.037 | [10] 0.004 | [11] 0 | [12] 0.044 | [13] 0 | [14] 0.019 | [15] -0.005 | [16] -0.051

RIF1 (UniProt Q5UIP0)
inactive: erlotinib 0.027 | [1] -0.032 | [2] 0.015 | [3] 0.016 | [4] -0.046 | [5] 0.017 | [6] -0.051 | [7] -0.023 | [8] 0.035 | IRAK-1-4 Inhibitor I -0.001 | ibrutinib 0.002 | [9] 0.019 | ralimetinib -0.001 | [10] -0.065 | [11] -0.009 | [12] 0.076 | [13] -0.011 | [14] 0 | [15] 0.038 | [16] 0.012

ROCK2 (UniProt O75116)
inactive: erlotinib 0.027 | [1] -0.023 | [2] 0.025 | [3] 0.121 | [4] 0.001 | [5] -0.009 | [6] -0.012 | [7] 0.031 | [8] 0.059 | IRAK-1-4 Inhibitor I -0.003 | ibrutinib -0.02 | [9] 0.008 | ralimetinib 0.017 | [10] -0.004 | [11] 0.004 | [12] 0.142 | [13] -0.025 | [14] -0.022 | [15] 0.029 | [16] -0.003

RPL35 (UniProt P42766)
inactive: erlotinib -0.052 | [1] -0.073 | [2] 0.004 | [3] 0 | [4] -0.02 | [5] 0.027 | [6] 0.041 | [7] 0.013 | [8] -0.029 | IRAK-1-4 Inhibitor I 0.029 | ibrutinib -0.009 | [9] -0.131 | ralimetinib -0.013 | [10] -0.006 | [11] 0.021 | [12] -0.019 | [13] -0.062 | [14] -0.019 | [15] -0.03 | [16] 0.021

RIPOR1 isoform 4 (UniProt Q6ZS17)
inactive: erlotinib -0.022 | [1] 0.02 | [2] 0.024 | [3] 0.056 | [4] 0.032 | [5] 0.001 | [6] 0.069 | [7] 0.015 | [8] -0.003 | IRAK-1-4 Inhibitor I -0.017 | ibrutinib -0.013 | [9] 0.071 | ralimetinib 0.005 | [10] 0.042 | [11] -0.035 | [12] 0.044 | [13] 0.004 | [14] 0.032 | [15] 0.053 | [16] -0.012

Two neighbouring records out of the list so far, quoted:
RIC8A (UniProt Q9NPQ8)
inactive: erlotinib 0.052 | [1] -0.159 | [2] -0.035 | [3] 0.031 | [4] 0.012 | [5] -0.024 | [6] -0.06 | [7] 0.01 | [8] 0.01 | IRAK-1-4 Inhibitor I -0.013 | ibrutinib 0.008 | [9] -0.002 | ralimetinib 0.006 | [10] 0.015 | [11] -0.043 | [12] 0.004 | [13] 0.015 | [14] 0.029 | [15] 0.007 | [16] -0.004

RNF214 (UniProt Q8ND24)
inactive: erlotinib -0.01 | [1] -0.043 | [2] 0.065 | [3] -0.019 | [4] -0.045 | [5] -0.007 | [6] 0.02 | [7] -0.024 | [8] 0.048 | IRAK-1-4 Inhibitor I -0.003 | ibrutinib 0.042 | [9] -0.009 | ralimetinib 0.011 | [10] -0.022 | [11] -0.005 | [12] 0.045 | [13] 0.021 | [14] -0.013 | [15] -0.021 | [16] -0.028

Remaining list, next part.

RNF220 (UniProt Q5VTB9)
inactive: erlotinib 0.016 | [1] -0.272 | [2] 0.022 | [3] 0.004 | [4] -0.02 | [5] -0.023 | [6] -0.018 | [7] -0.01 | [8] -0.018 | IRAK-1-4 Inhibitor I 0.041 | ibrutinib -0.037 | [9] 0.03 | ralimetinib 0.015 | [10] 0.01 | [11] -0.057 | [12] 0.03 | [13] 0.009 | [14] 0.029 | [15] -0.024 | [16] -0.039

RNF181 (UniProt Q9P0P0)
inactive: erlotinib 0.031 | [1] 0.037 | [2] 0.016 | [3] 0.036 | [4] -0.001 | [5] 0.022 | [6] -0.058 | [7] 0.03 | [8] 0.099 | IRAK-1-4 Inhibitor I -0.014 | ibrutinib 0.043 | [9] -0.024 | ralimetinib -0.001 | [10] -0.006 | [11] -0.005 | [12] -0.056 | [13] 0.008 | [14] 0.03 | [15] 0 | [16] 0.013

RPL21 (UniProt P46778)
inactive: erlotinib -0.026 | [1] -0.04 | [2] -0.014 | [3] -0.015 | [4] -0.044 | [5] 0.02 | [6] 0 | [7] 0.008 | [8] -0.016 | IRAK-1-4 Inhibitor I 0.032 | ibrutinib 0.012 | [9] -0.022 | ralimetinib -0.019 | [10] -0.038 | [11] 0.021 | [12] -0.033 | [13] -0.016 | [14] 0.015 | [15] 0.003 | [16] 0.009

RO60 (UniProt P10155)
inactive: erlotinib 0.015 | [1] -0.033 | [2] 0.026 | [3] 0.017 | [4] -0.052 | [5] 0.016 | [6] 0.028 | [7] 0 | [8] -0.022 | IRAK-1-4 Inhibitor I -0.01 | ibrutinib 0.043 | [9] 0.002 | ralimetinib 0.022 | [10] 0.001 | [11] 0.011 | [12] -0.011 | [13] 0.013 | [14] -0.018 | [15] -0.014 | [16] 0.001

RIC1 (UniProt Q4ADV7)
inactive: erlotinib 0 | [1] -0.239 | [2] -0.074 | [3] 0.025 | [4] -0.176 | [5] 0.044 | [6] 0.035 | [7] 0.038 | [8] 0.057 | IRAK-1-4 Inhibitor I 0.022 | ibrutinib -0.129 | [9] -0.052 | ralimetinib 0.046 | [10] -0.074 | [11] 0.038 | [12] -0.032 | [13] -0.065 | [14] 0.113 | [15] 0.027 | [16] -0.006

RPL28 (UniProt P46779)
inactive: erlotinib -0.012 | [1] -0.104 | [2] 0.006 | [3] -0.009 | [4] -0.037 | [5] 0.019 | [6] 0.016 | [7] -0.003 | [8] 0 | IRAK-1-4 Inhibitor I -0.02 | ibrutinib -0.026 | [9] -0.011 | ralimetinib -0.003 | [10] -0.005 | [11] 0.006 | [12] -0.038 | [13] -0.066 | [14] -0.021 | [15] 0.012 | [16] 0.026

RIOX2 (UniProt Q8IUF8)
inactive: erlotinib -0.002 | [1] 0.002 | [2] 0.032 | [3] -0.068 | [4] 0.028 | [5] 0.019 | [6] -0.078 | [7] 0 | [8] 0.067 | IRAK-1-4 Inhibitor I -0.002 | ibrutinib 0.046 | [9] 0.017 | ralimetinib -0.03 | [10] -0.016 | [11] -0.004 | [12] -0.033 | [13] -0.012 | [14] 0.048 | [15] 0.024 | [16] 0.025
